These results are taken from patent publication US20030028002A1, “Cyclin D binding factor, and uses thereof” (published 2003).

No constants are given. Whether binding was seen depends on the method and setting. Tags and fused reporters may be left off the sequences shown.

The target in one assay is cyclin A. As to the kind of experiment: GST pull-down.
The target of the next assay is cyclin E. As to the kind of experiment: GST pull-down.

B1: GST-DMP1 fusion protein (GST fused to residues 176-761 of DMP1) (other)
chain: GIKDATEIIFEMSKDERKDFYRTIAWGLNRPLFAVYRRVLRMYDDRNHVGKYTPEEIEKLKELRIKHGNDWATIGAALGRSASSVKDRCRLMKDTCNTGKWTEEEEKRLAEVVHELTSTEPGDIVTQGVSWAAVAERVGTRSEKQCRSKWLNYLNWKQSGGTEWTKEDEINLILRIAELDVADENDINWDLLAEGWSSVRSPQWLRSKWWTIKRQIANHKDVSFPVLIKGLKQLHENQKNNPVLLENKSGSGVPNSNCNSSVQHVQIRVARLEDNTAISPSPMAALQIPVQITHVSSTDSPAASADSETITLNSGTLQTFEILPSFPLQPTGTPGTYLLQTSSSQGLPLTLTTNPTLTLAAAAPASPEQIIVHALSPEHLLNTSDNVTVQCHTPRVIIQTVATEDITSSLSQEELTVDSDLHSSDFPEPPDALEADTFPDEIPRPKMTIQPSFNNAHVSKFSDQNSTELMNSVMVRTEEEIADTDLKQEEPPSDLASAYVTEDLESPTIVHQVHQTIDDETILIVPSPHGFIQASDVIDTESVLPLTTLTDPIFQHHQEASNIIGSSLGSPVSEDSKDVEDLVNCH
notes: Made in bacteria, held on glutathione-Sepharose beads; not shown: glutathione S-transferase encoded by pGEX-3X (Pharmacia)
B1: the binding result with cyclin A and with cyclin E was “no binding” each time.
